Data source: PubChem BioAssay AID1224831 (NIAID, 2016)

Aim: 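Retesting screen hits on the TLR4-driven TNF response with six separate siRNAs each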 (follow-up of hits)
Cell system: human THP-1 B5 monocytic leukaemia cells carrying a TNF promoter luciferase reporter, made macrophage-like with PMA
Reagents: single siRNA against human genes, 50 nM
Time to read-out: about 68 h of knock-down, then 4 h LPS
Conditions: LPS (Salmonella minnesota, TLR-grade) at 10 ng/ml for 4 h; PMA 5 ng/ml present during knock-down
Measured: 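Firefly to renilla luciferase ratio of a TNF promoter reporter after 4 h LPS, scaled to plate median, turned into robust z-score, averaged over replicates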
Scale: TNF reporter z-score: higher = stronger LPS-induced TNF reporter signal; z-score, median over gene's siRNAs: higher = stronger TNF reporter signal across the gene's siRNAs
Call rule: 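Two-sided call: reduced or raised TNF reporter signal counts as active once mean z reaches about -1 or below, or about 1.5 or above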
Calls: active = changed TNF reporter (either direction); inactive = little change
The deposit covers about 3,500 reagents; below is a random part of them. 731 of all reagents (21%) count as active. 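Active means either lowered or raised reporter signal; the gene-median score did not drive the per-siRNA calls.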 Unmarked entries are inactive. Reagents against one gene are numbered here.

gene knocked down	siRNA no.	TNF reporter z-score, replicate mean	z-score, median over gene's siRNAs
MOS (MOS proto-oncogene, serine/threonine kinase)	1	0.35	0.07
MOS (MOS proto-oncogene, serine/threonine kinase)	2	-0.62	0.07
MOS (MOS proto-oncogene, serine/threonine kinase)	3	-0.21	0.07
MOS (MOS proto-oncogene, serine/threonine kinase)	4	2.17 (active)	0.07
MOS (MOS proto-oncogene, serine/threonine kinase)	5	0.8	0.07
MOS (MOS proto-oncogene, serine/threonine kinase)	6	-0.48	0.07
MGAT2	1	-0.22	-0.29
MGAT2	2	0.46	-0.29
MGAT2	3	-1.07 (active)	-0.29
MGAT2	4	-0.23	-0.29
MGAT2	5	-1.47 (active)	-0.29
MGAT2	6	-0.35	-0.29
FAM131B (family with sequence similarity 131 member B)	1	1.09	0.105
FAM131B (family with sequence similarity 131 member B)	2	0.69	0.105
FAM131B (family with sequence similarity 131 member B)	3	-0.43	0.105
FAM131B (family with sequence similarity 131 member B)	4	0.4	0.105
FAM131B (family with sequence similarity 131 member B)	5	-0.99	0.105
FAM131B (family with sequence similarity 131 member B)	6	-0.19	0.105
ATF1 (activating transcription factor 1)	1	0	-0.415
ATF1 (activating transcription factor 1)	2	-0.48	-0.415
ATF1 (activating transcription factor 1)	3	-0.4	-0.415
ATF1 (activating transcription factor 1)	4	-1.31 (active)	-0.415
ATF1 (activating transcription factor 1)	5	-0.25	-0.415
ATF1 (activating transcription factor 1)	6	-0.43	-0.415
FAM47C (family with sequence similarity 47 member C)	1	2.65 (active)	0.545
FAM47C (family with sequence similarity 47 member C)	2	0.42	0.545
FAM47C (family with sequence similarity 47 member C)	3	0.67	0.545
FAM47C (family with sequence similarity 47 member C)	4	2.78 (active)	0.545
FAM47C (family with sequence similarity 47 member C)	5	0.37	0.545
FAM47C (family with sequence similarity 47 member C)	6	-0.02	0.545
ZNHIT3 (zinc finger HIT-type containing 3)	1	-1.09 (active)	-0.23
ZNHIT3 (zinc finger HIT-type containing 3)	2	-0.84	-0.23
ZNHIT3 (zinc finger HIT-type containing 3)	3	1.12	-0.23
ZNHIT3 (zinc finger HIT-type containing 3)	4	0.38	-0.23
ZNHIT3 (zinc finger HIT-type containing 3)	5	-1.31 (active)	-0.23
ZNHIT3 (zinc finger HIT-type containing 3)	6	4.05 (active)	-0.23
PMP2 (peripheral myelin protein 2)	1	0.67	0.28
PMP2 (peripheral myelin protein 2)	2	0.27	0.28
PMP2 (peripheral myelin protein 2)	3	-1.4 (active)	0.28
PMP2 (peripheral myelin protein 2)	4	-0.49	0.28
PMP2 (peripheral myelin protein 2)	5	0.29	0.28
PMP2 (peripheral myelin protein 2)	6	0.34	0.28
RND2 (Rho family GTPase 2)	1	-1.11 (active)	-1.09
RND2 (Rho family GTPase 2)	2	-1.72 (active)	-1.09
RND2 (Rho family GTPase 2)	3	0.17	-1.09
RND2 (Rho family GTPase 2)	4	-1.88 (active)	-1.09
RND2 (Rho family GTPase 2)	5	-1.07 (active)	-1.09
RND2 (Rho family GTPase 2)	6	0.67	-1.09
NLRC4 (NLR family CARD domain containing 4)	1	3.14 (active)	1.6
NLRC4 (NLR family CARD domain containing 4)	2	1.69 (active)	1.6
NLRC4 (NLR family CARD domain containing 4)	3	0.89	1.6
NLRC4 (NLR family CARD domain containing 4)	4	1.19	1.6
NLRC4 (NLR family CARD domain containing 4)	5	4.79 (active)	1.6
NLRC4 (NLR family CARD domain containing 4)	6	1.51 (active)	1.6
MCRIP2 (MAPK regulated corepressor interacting protein 2)	1	-0.09	0.295
MCRIP2 (MAPK regulated corepressor interacting protein 2)	2	0.62	0.295
MCRIP2 (MAPK regulated corepressor interacting protein 2)	3	0.61	0.295
MCRIP2 (MAPK regulated corepressor interacting protein 2)	4	-0.02	0.295
MCRIP2 (MAPK regulated corepressor interacting protein 2)	5	2.02 (active)	0.295
MCRIP2 (MAPK regulated corepressor interacting protein 2)	6	-0.41	0.295
MSRB1 (methionine sulfoxide reductase B1)	1	-0.75	-0.415
MSRB1 (methionine sulfoxide reductase B1)	2	-0.36	-0.415
MSRB1 (methionine sulfoxide reductase B1)	3	-0.86	-0.415
MSRB1 (methionine sulfoxide reductase B1)	4	0.24	-0.415
MSRB1 (methionine sulfoxide reductase B1)	5	-0.47	-0.415
MSRB1 (methionine sulfoxide reductase B1)	6	0.07	-0.415
DTNB (dystrobrevin beta)	1	0.91	0.55
DTNB (dystrobrevin beta)	2	0.56	0.55
DTNB (dystrobrevin beta)	3	0.54	0.55
DTNB (dystrobrevin beta)	4	-0.51	0.55
DTNB (dystrobrevin beta)	5	0.06	0.55
DTNB (dystrobrevin beta)	6	1.33	0.55
SCARB1 (scavenger receptor class B member 1)	1	-0.12	-0.205
SCARB1 (scavenger receptor class B member 1)	2	-0.29	-0.205
SCARB1 (scavenger receptor class B member 1)	3	-0.34	-0.205
SCARB1 (scavenger receptor class B member 1)	4	0.35	-0.205
SCARB1 (scavenger receptor class B member 1)	5	-1.52 (active)	-0.205
SCARB1 (scavenger receptor class B member 1)	6	1.57 (active)	-0.205
TAS1R2 (taste 1 receptor member 2)	1	-0.9	-0.345
TAS1R2 (taste 1 receptor member 2)	2	-0.77	-0.345
TAS1R2 (taste 1 receptor member 2)	3	-0.13	-0.345
TAS1R2 (taste 1 receptor member 2)	4	0.79	-0.345
TAS1R2 (taste 1 receptor member 2)	5	-0.56	-0.345
TAS1R2 (taste 1 receptor member 2)	6	0.1	-0.345
